PubChem BioAssay AID504808, Drosophila RNAi Screening Center, 2011
The screen tested about 21,000 reagents; this is an unselected part of those with a known target gene and a result. Over the whole deposit, 18 (0.084%) were called active. 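Raw counts without plate normalisation, one of two replicates; the ratio scores behind the calls were not deposited.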 Not given: the amount of reagent, the time to read-out.

Aim: 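Genes whose loss lifts activity of an E2F-responsive reporter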 (primary screen)
Cell system: Drosophila S2 cells
Reagent: long dsRNA against Drosophila genes
Measured: 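Firefly luciferase driven by E2F sites, normalised to Renilla luciferase on the same minimal promoter, measured by plate reader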
Direction: E2F firefly: higher = more E2F reporter activity; Renilla normaliser: higher = more normaliser reporter signal
Active means: 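Called active if the normalised E2F reporter went up by over 50%; the cutoff is arbitrary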

CG30339 [SID104184960] gave E2F firefly, rep 1 = 1.41e5; Renilla normaliser, rep 1 = 5662; inactive. For CG11714 [SID104189649], the entry reads E2F firefly, rep 1 = 67092; Renilla normaliser, rep 1 = 3477; inactive. Depletion of beat-Vc [SID104192719] gave: E2F firefly, rep 1 = 76828; Renilla normaliser, rep 1 = 2642; inactive. For beat-Vc [SID104194641], the entry reads E2F firefly, rep 1 = 1.33e5; Renilla normaliser, rep 1 = 5967; inactive. Depletion of Nin [SID104181799] resulted in: E2F firefly, rep 1 = 92246; Renilla normaliser, rep 1 = 3663; inactive. Noc1 [SID104190713] scored E2F firefly, rep 1 = 74284; Renilla normaliser, rep 1 = 4422; inactive.

Knock-down of Nuf2 [SID104182915] came out at: E2F firefly, rep 1 = 1.12e5; Renilla normaliser, rep 1 = 5382; inactive. After knock-down of CG8066 [SID104196166], the screen gave E2F firefly, rep 1 = 1.11e5; Renilla normaliser, rep 1 = 6372; inactive. Against CG34175 [SID104180216] the deposit lists E2F firefly, rep 1 = 1.44e5; Renilla normaliser, rep 1 = 4985; inactive. Silencing of CG33922 [SID104179842] resulted in: E2F firefly, rep 1 = 1.43e5; Renilla normaliser, rep 1 = 5557; inactive. Against ctrip [SID104192034], the values are E2F firefly, rep 1 = 1.06e5; Renilla normaliser, rep 1 = 6973; inactive. For ctrip [SID104192079] the deposit lists E2F firefly, rep 1 = 68258; Renilla normaliser, rep 1 = 3088; inactive.

After knock-down of CG5174 [SID104186712], the screen gave E2F firefly, rep 1 = 76267; Renilla normaliser, rep 1 = 3729; inactive. With knock-down of robl [SID104187466], the screen gave E2F firefly, rep 1 = 1.45e5; Renilla normaliser, rep 1 = 5627; inactive. Awh [SID104187932] gave E2F firefly, rep 1 = 1.03e5; Renilla normaliser, rep 1 = 4844; inactive. With knock-down of robl37BC [SID104182264] the results were E2F firefly, rep 1 = 88426; Renilla normaliser, rep 1 = 3939; inactive. Syt1 [SID104179948] gave E2F firefly, rep 1 = 1.37e5; Renilla normaliser, rep 1 = 6759; inactive. After knock-down of Syt1 [SID104179949], the screen gave E2F firefly, rep 1 = 1.29e5; Renilla normaliser, rep 1 = 6989; inactive.

After knock-down of Syt1 [SID104179950] the results were E2F firefly, rep 1 = 1.31e5; Renilla normaliser, rep 1 = 6204; inactive. With knock-down of Syt1 [SID104180632] the results were E2F firefly, rep 1 = 79993; Renilla normaliser, rep 1 = 3570; inactive.

3 entries from above, showing only “Renilla normaliser, rep 1”.
CG11714 [SID104189649] = 3477
beat-Vc [SID104192719] = 2642
beat-Vc [SID104194641] = 5967
